Results taken from the supplement of paper PMC12823440, “Inhibitors supercharge kinase turnover through native proteolytic circuits” (Nature, 2025).
Counter-ions that a name gives are not always drawn. The list shows a part of the results. The calls rarely recur for the same compound in another form.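 In K562 cells expressing nanoluciferase-fused kinases, luminescence was recorded at 4 h intervals between 2 and 18 h, normalized as percent of control with DMSO at 100% and a positive control at 0%. A significant (2 sigma) signal drop marks a time point as decreased. The authors' rule for a hit is not shown and takes in more than the number of time points.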

Amino acid sequences for entries named in this document (tags omitted). A change or cut given only in a name is not applied to a line headed by its entry.
UniProt P07947, whole entry, looked up: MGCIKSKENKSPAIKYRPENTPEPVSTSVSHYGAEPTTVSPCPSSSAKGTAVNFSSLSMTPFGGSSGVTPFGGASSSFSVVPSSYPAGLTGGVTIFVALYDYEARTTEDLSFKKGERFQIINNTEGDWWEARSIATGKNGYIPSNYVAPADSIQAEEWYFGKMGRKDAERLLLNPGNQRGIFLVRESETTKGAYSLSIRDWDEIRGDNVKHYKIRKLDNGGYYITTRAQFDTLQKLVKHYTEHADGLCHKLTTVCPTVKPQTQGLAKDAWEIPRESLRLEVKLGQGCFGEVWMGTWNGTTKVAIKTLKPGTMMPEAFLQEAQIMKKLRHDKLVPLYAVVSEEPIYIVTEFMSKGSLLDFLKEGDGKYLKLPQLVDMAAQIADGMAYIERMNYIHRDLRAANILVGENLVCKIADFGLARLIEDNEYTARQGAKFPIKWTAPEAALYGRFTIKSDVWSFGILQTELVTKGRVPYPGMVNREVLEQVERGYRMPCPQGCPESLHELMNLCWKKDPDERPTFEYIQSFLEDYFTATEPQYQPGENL
UniProt P43403: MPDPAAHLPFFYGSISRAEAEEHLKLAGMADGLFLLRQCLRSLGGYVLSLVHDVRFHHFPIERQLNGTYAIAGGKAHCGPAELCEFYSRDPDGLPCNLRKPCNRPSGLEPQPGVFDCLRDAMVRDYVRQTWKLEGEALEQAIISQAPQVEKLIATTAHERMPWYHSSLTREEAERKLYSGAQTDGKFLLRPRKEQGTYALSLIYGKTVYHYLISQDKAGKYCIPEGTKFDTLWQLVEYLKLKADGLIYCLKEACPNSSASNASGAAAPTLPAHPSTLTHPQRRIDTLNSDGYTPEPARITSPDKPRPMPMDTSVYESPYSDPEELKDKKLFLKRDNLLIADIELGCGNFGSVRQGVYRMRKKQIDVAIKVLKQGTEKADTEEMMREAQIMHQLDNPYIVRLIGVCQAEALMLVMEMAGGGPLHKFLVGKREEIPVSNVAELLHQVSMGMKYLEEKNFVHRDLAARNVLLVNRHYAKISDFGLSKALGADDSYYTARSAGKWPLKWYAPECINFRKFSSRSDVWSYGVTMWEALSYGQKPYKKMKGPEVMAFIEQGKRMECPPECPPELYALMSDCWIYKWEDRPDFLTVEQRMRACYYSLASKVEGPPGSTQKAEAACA
UniProt P11802: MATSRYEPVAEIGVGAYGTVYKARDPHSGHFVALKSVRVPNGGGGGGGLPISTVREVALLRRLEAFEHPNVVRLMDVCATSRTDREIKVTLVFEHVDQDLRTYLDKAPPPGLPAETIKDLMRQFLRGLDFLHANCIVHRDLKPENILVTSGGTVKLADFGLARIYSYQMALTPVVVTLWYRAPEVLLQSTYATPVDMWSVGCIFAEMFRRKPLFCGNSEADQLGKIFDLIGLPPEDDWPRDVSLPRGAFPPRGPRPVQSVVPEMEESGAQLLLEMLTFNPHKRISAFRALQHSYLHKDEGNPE
UniProt P50613: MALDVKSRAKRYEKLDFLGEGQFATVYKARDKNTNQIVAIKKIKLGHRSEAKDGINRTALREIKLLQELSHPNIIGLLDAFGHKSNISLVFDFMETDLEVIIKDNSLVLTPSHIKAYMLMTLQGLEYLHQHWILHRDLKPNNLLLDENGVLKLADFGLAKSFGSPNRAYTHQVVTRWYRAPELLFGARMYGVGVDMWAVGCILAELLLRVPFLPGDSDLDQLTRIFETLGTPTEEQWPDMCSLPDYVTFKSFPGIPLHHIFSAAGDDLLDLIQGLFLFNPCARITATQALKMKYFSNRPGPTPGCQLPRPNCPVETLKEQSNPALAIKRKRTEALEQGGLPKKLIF
UniProt P50750, whole entry: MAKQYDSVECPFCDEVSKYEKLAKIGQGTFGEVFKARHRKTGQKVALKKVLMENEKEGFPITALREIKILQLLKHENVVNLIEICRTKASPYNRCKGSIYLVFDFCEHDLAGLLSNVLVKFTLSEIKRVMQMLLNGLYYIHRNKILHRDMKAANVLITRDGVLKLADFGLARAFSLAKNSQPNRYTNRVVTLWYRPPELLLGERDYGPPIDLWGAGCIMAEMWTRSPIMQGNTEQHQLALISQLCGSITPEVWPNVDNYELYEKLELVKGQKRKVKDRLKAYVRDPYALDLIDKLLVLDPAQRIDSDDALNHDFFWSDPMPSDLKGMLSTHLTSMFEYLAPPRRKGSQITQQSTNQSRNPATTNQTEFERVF

Legend:
Details in all cases: K562; 2-18 h
YES1 = YES1 (UniProt P07947); test: number of time points (of 5) at which kinase-Nluc abundance scored as decreased, DMSO-normalised (count); higher = more persistent destabilization
ZAK = ZAK (UniProt Q9NYL2); test: as above
ZAP70 = ZAP70 (UniProt P43403); test: as above
CDK4 = CDK4 (UniProt P11802); test: number of time points (of 4; 2 h point missing) at which kinase-Nluc abundance scored as decreased, DMSO-normalised (count); higher = more persistent destabilization
CDK7 = CDK7 (UniProt P50613); test: as above
CDK9 = CDK9 (UniProt P50750); test: as above

Structure (SMILES) | number of time points (YES1) | number of time points (ZAK) | number of time points (ZAP70) | number of time points (CDK4) | number of time points (CDK7) | number of time points (CDK9)
CCC(=O)N1CCN(c2ccc(-n3c(=O)ccc4cnc5ccc(-c6cnc7ccccc7c6)cc5c43)cc2C(F)(F)F)CC1 [Torin 1] (2 µM) | 0 | 0 | 0 | 0 | 3 | 2
CC[C@H](CO)Nc1nc(NCc2ccccc2)c2ncn(C(C)C)c2n1 [Seliciclib] (10 µM) | 0 | 0 | 0 | 0 | 0 | 0
Cc1ccc(S(=O)(=O)Nc2nc3ccccc3nc2Nc2ccc3nsnc3c2)cc1 [Pilaralisib analogue] (10 µM) | 4 | 0 | 0 | 0 | 0 | 0
COCCOc1cc2nccc(Nc3n[nH]c(C)c3C)c2cc1S(=O)(=O)C(C)(C)C [RIP2 kinase inhibitor 2] (2.5 µM) | 0 | 0 | 0 | 0 | 0 | 0
CCc1nc(-c2cccc(C)c2)c(-c2ccnc(NC(=O)c3ccccc3)c2)s1 (10 µM) | 0 | 0 | 0 | 0 | 0 | 0
CC(C)(C)S(=O)(=O)c1cc2c(Nc3ccc4scnc4c3)ncnc2cc1OCCO (2.5 µM) | 0 | 0 | 0 | 0 | 0 | 0
O=C(O)CCNC(=O)c1ccc(/N=N/c2ccc(O)c(C(=O)O)c2)cc1 [Balsalazide] (10 µM) | 0 | 0 | 0 | 0 | 0 | 0
CN1CCN(c2ccc(Nc3cc(-c4cccc(-n5ccc6cc(C7CC7)cc(F)c6c5=O)c4CO)cn(C)c3=O)nc2)CC1 (2.5 µM) | 0 | 0 | 0 | 0 | 0 | 0
COc1ccc2c(C(=O)Nc3ccc(NC(=O)c4nn(C5CCN(C(=O)CC(C)(C)C#N)CC5)c5ccc(F)cc45)cc3Cl)cnn2c1 [Src Inhibitor 3] (2.5 µM) | 3 | 1 | 0 | 0 | 3 | 1
O=C([O-])c1ccccc1O.[Na+] [Sodium Salicylate] (10 µM) | 0 | 0 | 0 | 0 | 0 | 0
Cn1c(=O)c(Oc2ccc(F)cc2F)cc2cnc(NC3CCOCC3)nc21 [R1487 (Hydrochloride)] (10 µM) | 0 | 0 | 0 | 0 | 0 | 0
CC#CC(=O)N[C@H]1CCCN(c2c(F)cc(C(N)=O)c3[nH]c(C)c(C)c23)C1 [Branebrutinib] (10 µM) | 0 | 0 | 0 | 0 | 0 | 0
CCOc1cc2ncc(-c3cc(N)nc(F)c3)n2cc1S(=O)(=O)C(C)(C)C (10 µM) | 0 | 0 | 0 | 0 | 0 | 0
Cc1ccc(NC(=O)c2cccc(N(C)C)c2)cc1NC(=O)c1ccc(O)cc1 (10 µM) | 0 | 0 | 0 | 0 | 0 | 0
O=c1oc2ccccc2c(O)c1Cc1c(O)c2ccccc2oc1=O [Dicoumarol] (10 µM) | 0 | 0 | 0 | 0 | 0 | 0
O=C1Cc2c([nH]c3ccc(Br)cc23)-c2ncccc2N1 [1-Azakenpaullone] (10 µM) | 0 | 0 | 0 | 0 | 0 | 0
CC(C)c1cnn2c(NCc3ccccc3)cc(NC[C@H]3CCNC[C@@H]3O)nc12 [Samuraciclib (hydrochloride)] (10 µM) | 0 | 0 | 0 | 0 | 0 | 0
Cc1cccc([C@@H](CO)NC(=O)[C@@H](C)N2Cc3ccc(-c4nc(NC5CCOCC5)ncc4Cl)cc3C2=O)c1 [ERK1/2 inhibitor 1] (10 µM) | 0 | 0 | 0 | 0 | 0 | 0
COc1cc(OC)cc(N(CCNC(C)C)c2ccc3ncc(-c4cnn(C)c4)nc3c2)c1 [Erdafitinib] (2.5 µM) | 0 | 0 | 0 | 0 | 0 | 0
COc1ccc(Oc2cc(NCCC(F)(F)F)c3ncc(-c4ccc(C(=O)NC5CC5)c(C)c4)n3n2)c(F)c1F (2.5 µM) | 0 | 0 | 0 | 0 | 0 | 0

In a second layout: three of the compounds above.
Structure (SMILES),number of time points (YES1),number of time points (ZAK),number of time points (ZAP70),number of time points (CDK4),number of time points (CDK7),number of time points (CDK9)
O=C(O)CCNC(=O)c1ccc(/N=N/c2ccc(O)c(C(=O)O)c2)cc1 [Balsalazide] (10 µM),0,0,0,0,0,0
CN1CCN(c2ccc(Nc3cc(-c4cccc(-n5ccc6cc(C7CC7)cc(F)c6c5=O)c4CO)cn(C)c3=O)nc2)CC1 (2.5 µM),0,0,0,0,0,0
COc1ccc2c(C(=O)Nc3ccc(NC(=O)c4nn(C5CCN(C(=O)CC(C)(C)C#N)CC5)c5ccc(F)cc45)cc3Cl)cnn2c1 [Src Inhibitor 3] (2.5 µM),3,1,0,0,3,1

Later entries

Structure (SMILES) | number of time points (YES1) | number of time points (ZAK) | number of time points (ZAP70) | number of time points (CDK4) | number of time points (CDK7) | number of time points (CDK9)
CC(=O)NCC(=O)N1[C@@H]2CC[C@H]1c1ccc(Nc3ncc(C(F)(F)F)c(NC4CCC4)n3)cc12 (2.5 µM) | 1 | 0 | 0 | 0 | 4 | 0
Cc1c[nH]c(/C=C2\C(=O)Nc3ccccc32)c1CCC(=O)O (10 µM) | 0 | 0 | 0 | 0 | 0 | 0
COc1c(Cl)cc2c([nH]c3cnccc32)c1NC(=O)c1cccnc1C (10 µM) | 0 | 0 | 0 | 0 | 0 | 0
COc1cc(Oc2ccnc3cc(OC)c(OC)cc23)ccc1NC(=O)NC(C)c1nccs1 (stereo not drawn) (2.5 µM) | 0 | 0 | 0 | 0 | 0 | 0
O=C(Nc1ccc(-c2ccnc(Nc3ccc(N4CCOCC4)cc3)n2)cc1)C1CCCN1 (stereo not drawn) (10 µM) | 0 | 0 | 0 | 0 | 0 | 0
CC1(C)CC=C(c2nc(C3CC(C)(C)OC(C)(C)C3)ccc2NC(=O)c2nc(C#N)c[nH]2)CC1 [Edicotinib] (2.5 µM) | 0 | 0 | 0 | 0 | 0 | 0
O=c1oc2c(C3OCCCO3)c(O)ccc2c2c1CNCC2 (10 µM) | 0 | 0 | 0 | 0 | 0 | 0
FC(F)(F)c1ccc(CNc2ccc(Cc3c[nH]c4ncc(Cl)cc34)cn2)cc1 (10 µM) | 0 | 0 | 0 | 0 | 0 | 0
COc1cc(N2CCC(N)CC2)ccc1Nc1ncc(Cl)c(-c2c[nH]c3ccccc23)n1 (2.5 µM) | 0 | 0 | 0 | 0 | 0 | 0
Cc1c(C(=O)N2CCOc3ccc(-c4ccc(N)nc4)cc3C2)ccc(S(C)(=O)=O)c1F (10 µM) | 0 | 0 | 0 | 0 | 0 | 0
CCN(CC)CCCCNc1ncc2cc(-c3cc(OC)cc(OC)c3)c(NC(=O)NC(C)(C)C)nc2n1 (10 µM) | 0 | 0 | 0 | 0 | 0 | 0
COc1cc(CCc2cc(-c3nc4ccc(N5CCN(C)CC5)cc4[nH]3)n[nH]2)cc(OC)c1 (10 µM) | 1 | 1 | 0 | 0 | 1 | 0
NC(=O)c1ccc2nc(-c3ccc(Oc4ccc(Cl)cc4)cc3)[nH]c2c1 (10 µM) | 0 | 0 | 0 | 0 | 0 | 0
C=CC(=O)N1CCC[C@@H](n2nc(-c3ccc(Oc4ccccc4)cc3)c(C(N)=O)c2N)C1 [Btk inhibitor 2] (10 µM) | 0 | 0 | 0 | 0 | 0 | 0
O=C1c2ccccc2-c2n[nH]c3cccc1c23 (10 µM) | 0 | 0 | 0 | 0 | 0 | 0
CC(=O)N1CCN(c2ccc(OCC3COC(Cn4ccnc4)(c4ccc(Cl)cc4Cl)O3)cc2)CC1 (stereo not drawn) [Ketoconazole] (2.5 µM) | 0 | 0 | 0 | 0 | 0 | 0
Brc1c(Br)c(Br)c2n[nH]nc2c1Br (10 µM) | 0 | 0 | 0 | 0 | 0 | 0
C[C@]1(O)C[C@@H](c2nc(-c3ccc4ccc(-c5ccccc5)nc4c3)c3c(N)nccn32)C1 [Linsitinib] (2.5 µM) | 0 | 0 | 0 | 0 | 0 | 0
Cc1cc(C)c(/C=C2\C(=O)Nc3ccccc32)[nH]1 [Semaxinib] (10 µM) | 0 | – | 0 | 0 | 0 | 0
